The source of these data is PMC6053352.

The experiment has as its target T1, CD146 (mouse (endogenous in 10T1/2)) (UniProt Q8R2Y2).
T1 sequence: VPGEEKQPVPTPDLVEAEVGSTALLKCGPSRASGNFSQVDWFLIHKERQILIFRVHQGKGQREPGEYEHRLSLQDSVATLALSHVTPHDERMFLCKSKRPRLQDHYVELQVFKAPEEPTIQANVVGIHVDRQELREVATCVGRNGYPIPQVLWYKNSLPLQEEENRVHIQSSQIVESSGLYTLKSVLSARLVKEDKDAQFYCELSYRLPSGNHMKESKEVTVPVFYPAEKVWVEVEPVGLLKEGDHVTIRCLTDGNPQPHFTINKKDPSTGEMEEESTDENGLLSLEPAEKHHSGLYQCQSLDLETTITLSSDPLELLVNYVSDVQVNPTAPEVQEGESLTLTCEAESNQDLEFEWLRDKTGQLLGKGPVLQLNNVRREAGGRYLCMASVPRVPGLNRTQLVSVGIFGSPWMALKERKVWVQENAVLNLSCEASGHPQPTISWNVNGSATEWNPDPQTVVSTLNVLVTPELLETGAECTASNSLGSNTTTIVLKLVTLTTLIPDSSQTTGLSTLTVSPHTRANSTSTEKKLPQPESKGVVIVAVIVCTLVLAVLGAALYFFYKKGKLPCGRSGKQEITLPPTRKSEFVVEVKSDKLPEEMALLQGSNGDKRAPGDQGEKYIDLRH
Briefly: co-IP; endogenous proteins in 10T1/2 cells, with PDGF-B (20 ng/mL); also after Cd146-siRNA, Cd146-siRNA plus a Cd146-expressing plasmid, or in the presence of mIgG or AA98 (50 μg/mL); which protein was precipitated is not told.

These are yes or no findings as the source states them, for the method shown. Binding seen in cells or lysates may run through a third protein. Binding calls can cover weak binding; strength is not graded here.

Consider “PI3K p110 (mouse (endogenous in 10T1/2)) (enzyme)”, for which the binding entry is on record as “binds”.
